Results are given in words; binding and its absence hold for the method and conditions named. Some results given as binding are weak or reduced against the parent protein; the word gives no strength. Where a sequence is shown, tags or fusion partners need not be part of it.
How the values were obtained:
[1] = molecular target: Neuropilin-1 (Nrp-1), human, on the surface of the anti-CD3-stimulated P62 CTL clone (human) (UniProt O14786); experiment: flow cytometry: P62 T-cell clone incubated with Sema-3A-Fc (12 µg/mL), detected with mouse anti-human IgG Fc secondary mAb
[2] = molecular target: Neuropilin-1 (Nrp-1), human, on the surface of the anti-CD3-stimulated P62 CTL clone (human) (UniProt O14786); experiment: immunofluorescence (flow cytometry) on the P62 CTL clone

Sequences of proteins named here, by UniProt entry; tags and fusion partners are left off. A change or cut given only in a name is not applied to a line headed by its entry.
UniProt O14786: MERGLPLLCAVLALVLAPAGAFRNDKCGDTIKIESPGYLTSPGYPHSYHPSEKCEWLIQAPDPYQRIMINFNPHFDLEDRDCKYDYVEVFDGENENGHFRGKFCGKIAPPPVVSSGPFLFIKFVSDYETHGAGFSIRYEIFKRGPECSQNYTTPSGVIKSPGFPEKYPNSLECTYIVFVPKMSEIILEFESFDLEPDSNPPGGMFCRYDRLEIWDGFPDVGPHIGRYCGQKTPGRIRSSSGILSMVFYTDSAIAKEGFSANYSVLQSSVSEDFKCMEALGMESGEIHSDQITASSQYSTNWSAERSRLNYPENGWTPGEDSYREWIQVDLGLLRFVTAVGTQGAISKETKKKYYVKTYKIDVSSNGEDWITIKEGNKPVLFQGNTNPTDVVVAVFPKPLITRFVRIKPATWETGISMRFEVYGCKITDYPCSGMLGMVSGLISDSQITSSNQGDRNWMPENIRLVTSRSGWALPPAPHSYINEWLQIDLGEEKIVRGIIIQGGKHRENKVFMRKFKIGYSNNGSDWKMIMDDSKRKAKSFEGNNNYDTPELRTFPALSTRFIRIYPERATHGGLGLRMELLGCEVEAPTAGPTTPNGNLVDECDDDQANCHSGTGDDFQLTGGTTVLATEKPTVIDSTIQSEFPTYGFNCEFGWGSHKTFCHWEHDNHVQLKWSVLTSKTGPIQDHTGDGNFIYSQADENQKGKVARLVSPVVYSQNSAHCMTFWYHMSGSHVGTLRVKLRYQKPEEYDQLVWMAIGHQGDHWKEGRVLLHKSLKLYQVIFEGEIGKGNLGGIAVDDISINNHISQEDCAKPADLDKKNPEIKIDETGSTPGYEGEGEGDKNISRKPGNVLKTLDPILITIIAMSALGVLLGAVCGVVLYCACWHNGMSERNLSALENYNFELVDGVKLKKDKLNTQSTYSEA

B1: rSema-3A-Fc (Fc fusion, not shown: a dimerising Fc or GST)
chain: KNNVPRLKLSYKEMLESNNVITFNGLANSSSYHTFLLDEERSRLYVGAKDHIFSFDLVNIKDFQKIVWPVSYTRRDECKWAGKDILKECANFIKVLKAYNQTHLYACGTGAFHPICTYIEIGHHPEDNIFKLENSHFENGRGKSPYDPKLLTASLLIDGELYSGTAADFMGRDFAIFRTLGHHHPIRTEQHDSRWLNDPKFISAHLISESDNPEDDKVYFFFRENAIDGEHSGKATHARIGQICKNDFGGHRSLVNKWTTFLKARLICSVPGPNGIDTHFDELQDVFLMNFKDPKNPVVYGVFTTSSNIFKGSAVCMYSMSDVRRVFLGPYAHRDGPNYQWVPYQGRVPYPRPGTCPSKTFGGFDSTKDLPDDVITFARSHPAMYNPVFPMNNRPIVIKTDVNYQFTQIVVDRVDAEDGQYDVMFIGTDVGTVLKVVSIPKETWYDLEEVLLEEMTVFREPTAISAMELSTKQQQLYIGSTAGVAQLPLHRCDIYGKACAECCLARDPYCAWDGSACSRYFPTAKRRTRRQDIRNGDPLTHCSDLHHDNHHGHSPEERIIYGVENSSTFLECSPKSQRALVYWQFQRRNEERKEEIRVDDHIIRTDQGLLLRSLQQKDSGNYLCHAVEHGFIQTLLKVTLEVIDTEHLEELLHKDDDGDGSKTKEMSNSMTPSQKVWYRDFMQLINHPNLNTMDEFCEQVWKRDRKQRRQRPGHTPGNSNKWKHLQENKKGRNRRTHEFERAPRSV
binding [1]: binds
binding [2]: binds

Source: patent US20220023342A1
